# Source: the supplement of paper PMC10849652
# Protein sequences, listed by entry. Tags and fused reporters are not part of them. Lines headed by an entry give the natural chain unless they say otherwise; changes in a name come on top.
# UniProt Q14249: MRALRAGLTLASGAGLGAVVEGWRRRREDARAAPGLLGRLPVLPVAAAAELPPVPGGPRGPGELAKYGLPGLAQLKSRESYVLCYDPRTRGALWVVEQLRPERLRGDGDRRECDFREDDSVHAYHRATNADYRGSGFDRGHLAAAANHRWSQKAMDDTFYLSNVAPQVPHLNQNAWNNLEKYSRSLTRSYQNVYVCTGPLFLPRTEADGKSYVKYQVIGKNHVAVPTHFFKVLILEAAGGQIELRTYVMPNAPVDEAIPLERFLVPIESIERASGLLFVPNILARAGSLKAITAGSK
# UniProt P78344: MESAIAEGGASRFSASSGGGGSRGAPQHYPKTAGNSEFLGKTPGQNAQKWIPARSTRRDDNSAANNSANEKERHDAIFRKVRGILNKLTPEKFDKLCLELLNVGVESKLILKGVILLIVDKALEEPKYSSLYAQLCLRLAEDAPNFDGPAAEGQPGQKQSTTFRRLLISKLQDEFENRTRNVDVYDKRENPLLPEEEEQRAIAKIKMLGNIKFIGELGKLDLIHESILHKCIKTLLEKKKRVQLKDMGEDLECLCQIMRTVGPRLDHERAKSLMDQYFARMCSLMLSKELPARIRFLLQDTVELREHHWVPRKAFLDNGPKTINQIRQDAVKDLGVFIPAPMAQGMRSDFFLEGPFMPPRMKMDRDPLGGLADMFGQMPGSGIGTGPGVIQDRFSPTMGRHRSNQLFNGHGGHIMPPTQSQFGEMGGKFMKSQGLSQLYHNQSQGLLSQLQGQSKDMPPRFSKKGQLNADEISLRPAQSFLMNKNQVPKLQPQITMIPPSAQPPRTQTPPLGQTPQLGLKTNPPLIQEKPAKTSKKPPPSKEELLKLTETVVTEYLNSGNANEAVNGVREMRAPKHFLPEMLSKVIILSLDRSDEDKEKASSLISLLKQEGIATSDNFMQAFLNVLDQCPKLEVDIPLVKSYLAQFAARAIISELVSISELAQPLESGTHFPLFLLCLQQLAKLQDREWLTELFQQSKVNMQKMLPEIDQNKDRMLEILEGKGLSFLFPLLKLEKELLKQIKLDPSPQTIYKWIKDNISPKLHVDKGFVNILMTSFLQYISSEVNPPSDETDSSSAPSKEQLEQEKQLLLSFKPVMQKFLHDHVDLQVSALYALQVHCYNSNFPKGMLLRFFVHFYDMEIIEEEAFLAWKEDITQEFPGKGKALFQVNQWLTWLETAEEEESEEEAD
# UniProt Q14232, whole entry, looked up: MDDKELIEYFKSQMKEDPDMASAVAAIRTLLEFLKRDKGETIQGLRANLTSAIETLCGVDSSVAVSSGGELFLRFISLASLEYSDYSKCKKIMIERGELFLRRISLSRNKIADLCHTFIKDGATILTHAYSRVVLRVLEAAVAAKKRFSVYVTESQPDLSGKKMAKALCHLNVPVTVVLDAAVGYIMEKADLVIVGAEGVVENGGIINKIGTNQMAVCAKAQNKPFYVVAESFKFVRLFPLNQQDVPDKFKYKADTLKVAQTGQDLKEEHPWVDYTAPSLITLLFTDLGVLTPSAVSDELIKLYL
# UniProt Q9NRA8: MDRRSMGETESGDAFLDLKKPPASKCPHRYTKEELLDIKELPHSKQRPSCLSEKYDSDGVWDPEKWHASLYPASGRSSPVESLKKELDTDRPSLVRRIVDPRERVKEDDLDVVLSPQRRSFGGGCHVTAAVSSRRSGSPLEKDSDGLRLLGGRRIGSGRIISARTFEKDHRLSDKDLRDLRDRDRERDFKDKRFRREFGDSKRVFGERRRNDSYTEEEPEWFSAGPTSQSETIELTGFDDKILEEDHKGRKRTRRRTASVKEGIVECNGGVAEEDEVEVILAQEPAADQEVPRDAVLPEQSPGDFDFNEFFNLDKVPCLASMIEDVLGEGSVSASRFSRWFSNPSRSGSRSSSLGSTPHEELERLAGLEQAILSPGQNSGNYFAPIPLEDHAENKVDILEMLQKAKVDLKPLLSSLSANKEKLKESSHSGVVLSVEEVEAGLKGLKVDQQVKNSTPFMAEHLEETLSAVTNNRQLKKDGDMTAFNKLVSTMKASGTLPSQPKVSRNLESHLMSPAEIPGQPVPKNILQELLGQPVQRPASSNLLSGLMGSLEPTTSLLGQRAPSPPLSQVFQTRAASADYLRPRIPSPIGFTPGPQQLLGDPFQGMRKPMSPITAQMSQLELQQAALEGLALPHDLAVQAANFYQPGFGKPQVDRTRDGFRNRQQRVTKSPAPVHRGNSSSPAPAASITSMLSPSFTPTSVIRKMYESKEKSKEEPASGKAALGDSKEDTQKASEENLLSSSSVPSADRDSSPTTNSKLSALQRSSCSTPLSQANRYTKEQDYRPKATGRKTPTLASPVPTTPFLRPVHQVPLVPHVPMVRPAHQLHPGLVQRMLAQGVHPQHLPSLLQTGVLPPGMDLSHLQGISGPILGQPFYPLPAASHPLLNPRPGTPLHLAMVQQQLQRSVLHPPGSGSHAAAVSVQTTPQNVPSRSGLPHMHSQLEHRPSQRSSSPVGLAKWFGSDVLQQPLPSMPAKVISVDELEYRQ
# UniProt P09104, whole entry, looked up: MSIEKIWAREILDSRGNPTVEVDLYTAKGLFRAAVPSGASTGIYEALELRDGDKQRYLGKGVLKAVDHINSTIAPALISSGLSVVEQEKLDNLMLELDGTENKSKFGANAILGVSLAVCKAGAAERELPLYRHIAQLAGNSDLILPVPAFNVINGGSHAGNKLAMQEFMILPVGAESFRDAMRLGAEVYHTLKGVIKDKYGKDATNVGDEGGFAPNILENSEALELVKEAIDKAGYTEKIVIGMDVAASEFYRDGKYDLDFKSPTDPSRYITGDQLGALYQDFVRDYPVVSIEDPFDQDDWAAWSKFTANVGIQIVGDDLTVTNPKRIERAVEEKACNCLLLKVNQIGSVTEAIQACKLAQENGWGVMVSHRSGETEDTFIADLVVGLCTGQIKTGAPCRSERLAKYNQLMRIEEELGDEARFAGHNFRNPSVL
# UniProt Q13542: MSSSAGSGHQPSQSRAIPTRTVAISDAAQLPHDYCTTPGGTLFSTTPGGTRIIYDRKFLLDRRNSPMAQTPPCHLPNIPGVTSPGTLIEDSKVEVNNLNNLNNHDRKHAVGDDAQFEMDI
# UniProt Q9H223: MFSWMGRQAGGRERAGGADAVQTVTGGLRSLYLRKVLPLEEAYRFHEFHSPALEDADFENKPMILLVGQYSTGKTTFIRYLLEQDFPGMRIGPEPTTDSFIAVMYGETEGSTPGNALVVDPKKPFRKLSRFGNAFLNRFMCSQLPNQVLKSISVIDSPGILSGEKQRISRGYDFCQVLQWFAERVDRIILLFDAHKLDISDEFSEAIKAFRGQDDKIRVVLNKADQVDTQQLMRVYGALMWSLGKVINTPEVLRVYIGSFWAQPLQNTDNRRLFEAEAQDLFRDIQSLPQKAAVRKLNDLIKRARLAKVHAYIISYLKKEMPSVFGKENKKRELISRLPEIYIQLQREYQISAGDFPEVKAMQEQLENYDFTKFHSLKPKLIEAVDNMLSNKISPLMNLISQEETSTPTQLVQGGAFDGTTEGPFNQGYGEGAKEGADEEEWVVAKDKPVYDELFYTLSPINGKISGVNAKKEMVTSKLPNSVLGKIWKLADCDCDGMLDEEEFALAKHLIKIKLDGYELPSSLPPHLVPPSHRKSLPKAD
# UniProt Q53HC9: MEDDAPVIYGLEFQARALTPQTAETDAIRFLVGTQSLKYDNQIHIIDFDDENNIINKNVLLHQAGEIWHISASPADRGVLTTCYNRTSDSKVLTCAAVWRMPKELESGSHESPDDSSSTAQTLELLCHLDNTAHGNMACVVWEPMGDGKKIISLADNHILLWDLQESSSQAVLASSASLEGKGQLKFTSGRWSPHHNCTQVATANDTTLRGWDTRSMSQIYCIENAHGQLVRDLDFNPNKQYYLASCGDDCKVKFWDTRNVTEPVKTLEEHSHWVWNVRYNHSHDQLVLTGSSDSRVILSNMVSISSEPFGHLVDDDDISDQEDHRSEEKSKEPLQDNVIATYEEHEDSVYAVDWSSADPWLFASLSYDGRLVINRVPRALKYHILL
# UniProt Q5J8M3, whole entry, looked up: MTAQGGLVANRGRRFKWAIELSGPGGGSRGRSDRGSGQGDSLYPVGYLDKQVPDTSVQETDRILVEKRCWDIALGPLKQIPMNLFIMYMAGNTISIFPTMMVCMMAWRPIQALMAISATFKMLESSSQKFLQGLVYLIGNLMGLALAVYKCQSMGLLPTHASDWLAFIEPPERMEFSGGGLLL
# UniProt Q13541: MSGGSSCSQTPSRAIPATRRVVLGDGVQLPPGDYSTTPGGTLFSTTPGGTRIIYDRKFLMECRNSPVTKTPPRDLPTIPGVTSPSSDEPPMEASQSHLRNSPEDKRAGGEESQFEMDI
# UniProt Q8NFI3: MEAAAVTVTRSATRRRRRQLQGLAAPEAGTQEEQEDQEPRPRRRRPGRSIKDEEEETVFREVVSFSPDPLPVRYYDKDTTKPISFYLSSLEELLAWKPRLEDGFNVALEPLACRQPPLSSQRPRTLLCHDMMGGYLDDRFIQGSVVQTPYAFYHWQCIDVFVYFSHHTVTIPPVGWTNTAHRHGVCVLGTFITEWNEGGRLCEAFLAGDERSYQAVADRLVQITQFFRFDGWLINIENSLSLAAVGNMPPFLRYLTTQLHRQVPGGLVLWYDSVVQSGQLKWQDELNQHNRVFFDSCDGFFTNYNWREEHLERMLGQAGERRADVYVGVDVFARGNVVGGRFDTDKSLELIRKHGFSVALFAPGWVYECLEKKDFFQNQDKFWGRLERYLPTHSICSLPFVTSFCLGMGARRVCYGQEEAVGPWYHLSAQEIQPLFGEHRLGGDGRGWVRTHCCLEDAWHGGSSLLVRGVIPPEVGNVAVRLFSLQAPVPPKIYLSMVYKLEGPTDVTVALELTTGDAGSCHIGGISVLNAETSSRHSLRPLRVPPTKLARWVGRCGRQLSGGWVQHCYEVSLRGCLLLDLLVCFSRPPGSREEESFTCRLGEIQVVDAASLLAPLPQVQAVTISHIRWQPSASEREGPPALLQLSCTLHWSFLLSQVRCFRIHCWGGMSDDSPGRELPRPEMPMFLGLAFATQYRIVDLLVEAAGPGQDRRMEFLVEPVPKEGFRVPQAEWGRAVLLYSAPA
# UniProt O00303, whole entry, looked up: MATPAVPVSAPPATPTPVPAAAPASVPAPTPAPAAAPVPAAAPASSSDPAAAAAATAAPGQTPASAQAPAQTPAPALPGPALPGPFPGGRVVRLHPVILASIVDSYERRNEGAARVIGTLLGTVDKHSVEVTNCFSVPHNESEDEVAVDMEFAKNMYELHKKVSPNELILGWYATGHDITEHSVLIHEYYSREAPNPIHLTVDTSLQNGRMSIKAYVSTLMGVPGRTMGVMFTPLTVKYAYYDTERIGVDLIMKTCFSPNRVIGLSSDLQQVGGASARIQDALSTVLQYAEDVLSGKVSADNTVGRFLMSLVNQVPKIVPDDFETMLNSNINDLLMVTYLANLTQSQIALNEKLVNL
# UniProt Q9BQ52: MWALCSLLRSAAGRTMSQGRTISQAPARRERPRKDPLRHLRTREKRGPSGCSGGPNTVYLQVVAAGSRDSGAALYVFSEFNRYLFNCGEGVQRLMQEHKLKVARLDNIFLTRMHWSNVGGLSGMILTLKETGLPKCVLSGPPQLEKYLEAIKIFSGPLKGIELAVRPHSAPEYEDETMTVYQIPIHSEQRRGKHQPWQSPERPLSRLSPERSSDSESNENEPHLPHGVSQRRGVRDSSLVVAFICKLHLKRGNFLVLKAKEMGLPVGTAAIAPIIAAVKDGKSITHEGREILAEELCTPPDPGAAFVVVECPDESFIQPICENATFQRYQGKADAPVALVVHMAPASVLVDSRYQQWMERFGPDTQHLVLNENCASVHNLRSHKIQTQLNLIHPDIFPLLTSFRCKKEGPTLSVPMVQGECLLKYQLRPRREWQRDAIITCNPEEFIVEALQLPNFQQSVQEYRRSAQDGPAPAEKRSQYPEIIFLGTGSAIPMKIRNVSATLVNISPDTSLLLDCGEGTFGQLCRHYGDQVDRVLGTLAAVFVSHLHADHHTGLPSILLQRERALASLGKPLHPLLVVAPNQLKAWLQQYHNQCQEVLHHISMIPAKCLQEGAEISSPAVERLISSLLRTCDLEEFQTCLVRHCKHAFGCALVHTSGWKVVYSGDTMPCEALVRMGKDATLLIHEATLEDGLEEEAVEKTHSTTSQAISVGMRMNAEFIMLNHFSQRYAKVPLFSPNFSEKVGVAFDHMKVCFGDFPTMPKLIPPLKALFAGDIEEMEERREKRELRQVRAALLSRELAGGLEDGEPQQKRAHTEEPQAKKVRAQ
# UniProt O15372, whole entry, looked up: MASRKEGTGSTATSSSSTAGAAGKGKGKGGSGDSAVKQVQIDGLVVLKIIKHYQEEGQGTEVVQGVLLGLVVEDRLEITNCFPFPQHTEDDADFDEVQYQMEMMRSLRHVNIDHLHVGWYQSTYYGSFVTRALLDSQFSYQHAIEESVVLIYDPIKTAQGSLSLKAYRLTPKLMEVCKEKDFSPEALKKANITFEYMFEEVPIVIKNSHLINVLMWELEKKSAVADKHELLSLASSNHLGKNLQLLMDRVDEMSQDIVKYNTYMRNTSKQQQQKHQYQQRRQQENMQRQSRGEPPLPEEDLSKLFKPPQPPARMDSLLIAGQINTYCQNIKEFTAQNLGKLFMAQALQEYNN
# The other results are listed elsewhere or left out.
# Compound: Cc1cc(SCc2sc(-c3ccc(C(F)(F)F)cc3)nc2C)ccc1OCC(=O)O
# Assay: log2 fold change, soluble protein after heating vs DMSO (PISA); higher = thermal stabilisation; K562 cells, 10 uM, 30 min; active = over 0.2 and 3.5 SD of the protein, either way, in both replicates (recomputed)
# Procedure, shortened: (§1)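 K562 cells (2×10^6 cells/mL) were treated with 10 μM compound for 30 min, and aliquots were heated for 3 min over 48°C-58°C. Pooled aliquots were extracted in PBS with 0.5% NP-40 at 4°C, and the supernatant after 21,000xg for 90 min was measured by TMTpro 16plex LC-MS/MS with channel sums equalised. Reported thermal stability, relative to control samples and from duplicates, is a log2 fold change.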
row,Target,log2 fold change
1,EIF2D (UniProt P41214),inactive: 0.106
2,EMC2 (UniProt Q15006),inactive: 0.058
3,EHMT2 (UniProt Q96KQ7),inactive: 0.145
4,ENDOG (UniProt Q14249),inactive: 0
5,EIF4G2 (UniProt P78344),inactive: 0.138
6,EIF2B1 (UniProt Q14232),inactive: -0.001
7,EEF1A2 (UniProt Q05639),inactive: 0.019
8,ENOPH1 (UniProt Q9UHY7),inactive: 0.193
9,EIF4ENIF1 isoform 3 (UniProt Q9NRA8),inactive: 0.067
10,ENO2 (UniProt P09104),inactive: -0.029
11,EIF4EBP2 (UniProt Q13542),inactive: 0.005
12,EFTUD2 (UniProt Q15029),inactive: -0.054
13,EIF5B (UniProt O60841),inactive: 0.035
14,EHD4 (UniProt Q9H223),inactive: -0.002
15,EIPR1 (UniProt Q53HC9),inactive: -0.021
16,EI24 (UniProt O14681),inactive: -0.027
17,EIF3C (UniProt Q99613),inactive: 0.115

row,Target,log2 fold change
1,EIF3E (UniProt P60228),inactive: 0.247
2,EIF3L (UniProt Q9Y262),inactive: -0.001
3,EMC4 (UniProt Q5J8M3),inactive: 0.041
4,EIF4EBP1 (UniProt Q13541),inactive: 0.003
5,ELP5 isoform 4 (UniProt Q8TE02),inactive: -0.051
6,EIF5 (UniProt P55010),inactive: 0.034
7,ENGASE (UniProt Q8NFI3),inactive: 0.03
8,EEFSEC (UniProt P57772),inactive: 0.06
9,EEF2 (UniProt P13639),inactive: -0.041
10,EIF3F (UniProt O00303),inactive: 0.1
11,EIF3A (UniProt Q14152),inactive: 0.108
12,ELAC2 (UniProt Q9BQ52),inactive: 0.008
13,EFHD2 (UniProt Q96C19),inactive: 0.063
14,EIF3H (UniProt O15372),inactive: 0.021
15,ELOB (UniProt Q15370),inactive: -0.008
16,EIF1AD (UniProt Q8N9N8),inactive: -0.027

# Compound: Cc1ccc(-n2nc(C(C)(C)C)cc2NC(=O)Nc2ccc(OCCN3CCOCC3)c3ccccc23)cc1 [doramapimod]
# Assay: as above
# Procedure, shortened: as §1
row,Target,log2 fold change
1,EIF2D (UniProt P41214),inactive: 0.117
2,EMC2 (UniProt Q15006),inactive: 0
3,EHMT2 (UniProt Q96KQ7),inactive: -0.048
4,ENDOG (UniProt Q14249),inactive: -0.036
5,EIF4G2 (UniProt P78344),inactive: 0.224
6,EIF2B1 (UniProt Q14232),inactive: -0.048
7,EEF1A2 (UniProt Q05639),inactive: -0.012
8,ENOPH1 (UniProt Q9UHY7),inactive: -0.024
9,EIF4ENIF1 isoform 3 (UniProt Q9NRA8),inactive: -0.037
10,ENO2 (UniProt P09104),inactive: -0.007
11,EIF4EBP2 (UniProt Q13542),inactive: 0.109
12,EFTUD2 (UniProt Q15029),inactive: 0
13,EIF5B (UniProt O60841),inactive: 0.073
14,EHD4 (UniProt Q9H223),inactive: -0.005
15,EIPR1 (UniProt Q53HC9),inactive: -0.038
16,EI24 (UniProt O14681),inactive: -0.106
17,EIF3C (UniProt Q99613),inactive: 0.127

row,Target,log2 fold change
1,EIF3E (UniProt P60228),inactive: 0.055
2,EIF3L (UniProt Q9Y262),inactive: 0.015
3,EMC4 (UniProt Q5J8M3),inactive: 0.079
4,EIF4EBP1 (UniProt Q13541),inactive: 0.076
5,ELP5 isoform 4 (UniProt Q8TE02),inactive: -0.061
6,EIF5 (UniProt P55010),inactive: -0.041
7,ENGASE (UniProt Q8NFI3),inactive: 0.005
8,EEFSEC (UniProt P57772),inactive: 0.043
9,EEF2 (UniProt P13639),inactive: -0.023
10,EIF3F (UniProt O00303),inactive: 0.059
11,EIF3A (UniProt Q14152),inactive: 0.021
12,ELAC2 (UniProt Q9BQ52),inactive: 0.002
13,EFHD2 (UniProt Q96C19),inactive: 0.002
14,EIF3H (UniProt O15372),inactive: 0.01
15,ELOB (UniProt Q15370),inactive: 0.054
16,EIF1AD (UniProt Q8N9N8),inactive: -0.028

# Compound: Cc1ccc(C(=O)N(CCCN)[C@@H](c2nc3cc(Cl)ccc3c(=O)n2Cc2ccccc2)C(C)C)cc1 [ispinesib]
# Assay: as above
# Procedure, shortened: as §1
row,Target,log2 fold change
1,EIF2D (UniProt P41214),inactive: -0.057
2,EMC2 (UniProt Q15006),inactive: 0.11
3,EHMT2 (UniProt Q96KQ7),inactive: 0.022
4,ENDOG (UniProt Q14249),inactive: -0.022
5,EIF4G2 (UniProt P78344),inactive: -0.324
6,EIF2B1 (UniProt Q14232),inactive: 0.042
7,EEF1A2 (UniProt Q05639),inactive: -0.035
8,ENOPH1 (UniProt Q9UHY7),inactive: -0.051
9,EIF4ENIF1 isoform 3 (UniProt Q9NRA8),inactive: -0.035
10,ENO2 (UniProt P09104),inactive: -0.019
11,EIF4EBP2 (UniProt Q13542),inactive: 0.231
12,EFTUD2 (UniProt Q15029),inactive: 0.037
13,EIF5B (UniProt O60841),inactive: -0.012
14,EHD4 (UniProt Q9H223),inactive: -0.066
15,EIPR1 (UniProt Q53HC9),inactive: 0.1
16,EI24 (UniProt O14681),inactive: -0.028
17,EIF3C (UniProt Q99613),inactive: -0.221

row,Target,log2 fold change
1,EIF3E (UniProt P60228),inactive: -0.155
2,EIF3L (UniProt Q9Y262),inactive: 0.003
3,EMC4 (UniProt Q5J8M3),inactive: 0.035
4,EIF4EBP1 (UniProt Q13541),inactive: 0.041
5,ELP5 isoform 4 (UniProt Q8TE02),inactive: 0.012
6,EIF5 (UniProt P55010),inactive: 0.031
7,ENGASE (UniProt Q8NFI3),inactive: -0.029
8,EEFSEC (UniProt P57772),inactive: -0.11
9,EEF2 (UniProt P13639),inactive: 0.073
10,EIF3F (UniProt O00303),inactive: -0.014
11,EIF3A (UniProt Q14152),inactive: -0.112
12,ELAC2 (UniProt Q9BQ52),inactive: 0.025
13,EFHD2 (UniProt Q96C19),inactive: 0.03
14,EIF3H (UniProt O15372),inactive: -0.045
15,ELOB (UniProt Q15370),inactive: 0.092
16,EIF1AD (UniProt Q8N9N8),inactive: 0.003
